In publication doi:10.1101/2021.03.03.433744 one finds binding data, which are given here for three molecules.

These are yes or no findings as the source states them, for the method shown. Binding seen in cells or lysates may run through a third protein. Some entries that bind do so weakly or less than the wild type. Tags and fused reporters may be left off the sequences shown.

In experiment [1] the target is T1, OsCEBiP-3×FLAG (rice (Nipponbare)) (UniProt Q8H8C7).
T1 sequence: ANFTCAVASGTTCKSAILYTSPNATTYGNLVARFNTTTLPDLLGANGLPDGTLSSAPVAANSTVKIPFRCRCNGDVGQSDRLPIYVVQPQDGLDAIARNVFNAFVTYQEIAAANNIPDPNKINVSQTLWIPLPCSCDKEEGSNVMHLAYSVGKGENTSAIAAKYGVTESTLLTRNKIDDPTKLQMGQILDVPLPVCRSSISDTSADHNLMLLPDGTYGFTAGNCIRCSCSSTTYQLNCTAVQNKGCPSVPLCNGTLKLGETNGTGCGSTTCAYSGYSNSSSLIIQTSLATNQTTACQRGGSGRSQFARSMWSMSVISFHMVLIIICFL
Briefly: co-IP.

Experiment [2] concerns the target T2, OsCERK1-3×FLAG (rice (Nipponbare)), A0A0P0.
T2 chain: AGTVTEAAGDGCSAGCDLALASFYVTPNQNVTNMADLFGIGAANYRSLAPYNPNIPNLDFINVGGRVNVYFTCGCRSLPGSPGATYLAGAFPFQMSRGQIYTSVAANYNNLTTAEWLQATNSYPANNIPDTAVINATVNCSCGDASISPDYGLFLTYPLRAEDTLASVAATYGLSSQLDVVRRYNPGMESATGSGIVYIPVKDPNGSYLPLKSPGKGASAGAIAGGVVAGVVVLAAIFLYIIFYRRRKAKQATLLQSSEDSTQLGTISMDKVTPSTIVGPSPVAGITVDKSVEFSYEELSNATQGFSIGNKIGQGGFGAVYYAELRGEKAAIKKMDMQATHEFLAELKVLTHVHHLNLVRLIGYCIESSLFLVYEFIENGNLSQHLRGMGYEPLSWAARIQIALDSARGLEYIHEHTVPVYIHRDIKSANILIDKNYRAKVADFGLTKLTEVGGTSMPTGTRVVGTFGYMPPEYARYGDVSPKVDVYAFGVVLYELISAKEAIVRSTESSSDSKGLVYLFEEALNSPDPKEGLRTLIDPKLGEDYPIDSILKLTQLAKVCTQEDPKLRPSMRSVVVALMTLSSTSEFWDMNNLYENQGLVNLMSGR
Briefly: co-IP. The settings on record: remark: other sources report otherwise.

B1: OsCEBiP-3×FLAG (receptor, UniProt Q8H8C7 29-356)
chain: T1 sequence
Take B1: in experiment [1], the binding entry was “binds”.

B2: OsCERK1-3×FLAG (receptor, UniProt A0A0P0XII1 19-624)
chain: T2 chain
As for B2, the binding entry in experiment [1] was “binds”.

B3: OsCERK1-3×FLAG, A0A0P0XII1 19-624 (receptor)
chain: T2 chain
As to B3, in experiment [2], the binding entry was “binds”.
